# From the supplement of paper PMC8728848
# This is one part of the list.
# Columns and labels:
# Assay in all cases: glycan array binding signal (z-score within array); higher = stronger binding
# Conditions in all cases: glycan notation: IUPAC condensed, linker removed
# [1] = target: Neu5Ac(a2-3)Gal(b1-3)GlcNAc6S
# Outline: (§1)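 Negative Z-scores can be read as non-binding. The Z-score is calculated within each array and then averaged across arrays of one protein sequence at different concentrations or buffers and across linkers. Arrays, 3228 in all, were curated from the Consortium for Functional Glycomics database and kept only where the protein sequence was available.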
# [2] = target: Neu5Ac(a2-3)Gal(b1-3)[Fuc(a1-4)]GlcNAc
# Outline: as §1
# [3] = target: Neu5Ac(a2-3)Gal(b1-3)[Fuc(a1-4)]GlcNAc(b1-3)Gal(b1-3)[Fuc(a1-4)]GlcNAc
# Outline: as §1
# [4] = target: Neu5Ac(a2-3)Gal(b1-3)[Fuc(a1-4)]GlcNAc(b1-3)Gal(b1-4)[Fuc(a1-3)]GlcNAc
# Outline: as §1
# [5] = target: Neu5Ac(a2-3)Gal(b1-3)[GlcNAc(b1-6)]GalNAc
# Outline: as §1
# [6] = target: Neu5Ac(a2-3)Gal(b1-3)[Neu5Ac(a2-6)]GalNAc
# Outline: as §1
# [7] = target: Neu5Ac(a2-3)Gal(b1-3)[Neu5Ac(a2-6)]GlcNAc(b1-3)[Fuc(a1-3)[Gal(b1-4)]GlcNAc(b1-6)]Gal(b1-4)Glc
# Outline: as §1
# [8] = target: Neu5Ac(a2-3)Gal(b1-3)]Neu5Ac(a2-3)Gal(b1-4)]GlcNAc
# Outline: as §1
# [9] = target: Neu5Ac(a2-3)Gal(b1-4)Glc
# Outline: as §1
# [10] = target: Neu5Ac(a2-3)Gal(b1-4)GlcNAc
# Outline: as §1
# [11] = target: Neu5Ac(a2-3)Gal(b1-4)GlcNAc(b1-2)Man
# Outline: as §1
# [12] = target: Neu5Ac(a2-3)Gal(b1-4)GlcNAc(b1-2)Man(a1-3)[GlcNAc(b1-4)][Neu5Ac(a2-3)Gal(b1-4)GlcNAc(b1-2)Man(a1-6)]Man(b1-4)GlcNAc(b1-4)GlcNAc
# Outline: as §1
# [13] = target: Neu5Ac(a2-3)Gal(b1-4)GlcNAc(b1-2)Man(a1-3)[Neu5Ac(a2-3)Gal(b1-4)GlcNAc(b1-2)Man(a1-6)]Man(b1-4)GlcNAc(b1-4)GlcNAc
# Outline: as §1
# [14] = target: Neu5Ac(a2-3)Gal(b1-4)GlcNAc(b1-2)Man(a1-3)[Neu5Ac(a2-3)Gal(b1-4)GlcNAc(b1-2)Man(a1-6)]Man(b1-4)GlcNAc(b1-4)[Fuc(a1-6)]GlcNAc
# Outline: as §1
# [15] = target: Neu5Ac(a2-3)Gal(b1-4)GlcNAc(b1-2)Man(a1-3)[Neu5Ac(a2-6)Gal(b1-4)GlcNAc(b1-2)Man(a1-6)]Man(b1-4)GlcNAc(b1-4)GlcNAc
# Outline: as §1
# [16] = target: Neu5Ac(a2-3)Gal(b1-4)GlcNAc(b1-2)[Neu5Ac(a2-3)Gal(b1-4)GlcNAc(b1-4)]Man(a1-3)[GlcNAc(b1-4)][Neu5Ac(a2-3)Gal(b1-4)GlcNAc(b1-2)[Neu5Ac(a2-3)Gal(b1-4)GlcNAc(b1-6)]Man(a1-6)]Man(b1-4)GlcNAc(b1-4)GlcNAc
# Outline: as §1
# [17] = target: Neu5Ac(a2-3)Gal(b1-4)GlcNAc(b1-2)[Neu5Ac(a2-3)Gal(b1-4)GlcNAc(b1-4)]Man(a1-3)[GlcNAc(b1-4)][Neu5Ac(a2-3)Gal(b1-4)GlcNAc(b1-4)Man(a1-6)]Man(b1-4)GlcNAc(b1-4)GlcNAc
# Outline: as §1
# [18] = target: Neu5Ac(a2-3)Gal(b1-4)GlcNAc(b1-2)[Neu5Ac(a2-3)Gal(b1-4)GlcNAc(b1-6)]Man(a1-6)[Neu5Ac(a2-3)Gal(b1-4)GlcNAc(b1-2)Man(a1-3)][GlcNAc(b1-4)]Man(b1-4)GlcNAc(b1-4)GlcNAc
# Outline: as §1
# [19] = target: Neu5Ac(a2-3)Gal(b1-4)GlcNAc(b1-3)Gal
# Outline: as §1
# [20] = target: Neu5Ac(a2-3)Gal(b1-4)GlcNAc(b1-3)Gal(b1-3)GlcNAc
# Outline: as §1
# [21] = target: Neu5Ac(a2-3)Gal(b1-4)GlcNAc(b1-3)Gal(b1-4)GlcNAc
# Outline: as §1
# [22] = target: Neu5Ac(a2-3)Gal(b1-4)GlcNAc(b1-3)Gal(b1-4)GlcNAc(b1-2)Man(a1-3)[Neu5Ac(a2-3)Gal(b1-4)GlcNAc(b1-3)Gal(b1-4)GlcNAc(b1-2)Man(a1-6)]Man(b1-4)GlcNAc(b1-4)GlcNAc
# Outline: as §1
# [23] = target: Neu5Ac(a2-3)Gal(b1-4)GlcNAc(b1-3)Gal(b1-4)GlcNAc(b1-3)Gal(b1-4)GlcNAc
# Outline: as §1
# [24] = target: Neu5Ac(a2-3)Gal(b1-4)GlcNAc(b1-3)Gal(b1-4)GlcNAc(b1-3)Gal(b1-4)GlcNAc(b1-2)Man(a1-3)[Neu5Ac(a2-3)Gal(b1-4)GlcNAc(b1-3)Gal(b1-4)GlcNAc(b1-3)Gal(b1-4)GlcNAc(b1-2)Man(a1-6)]GalNAc
# Outline: as §1
# [25] = target: Neu5Ac(a2-3)Gal(b1-4)GlcNAc(b1-3)Gal(b1-4)GlcNAc(b1-3)GalNAc
# Outline: as §1
# [26] = target: Neu5Ac(a2-3)Gal(b1-4)GlcNAc(b1-3)Gal(b1-4)GlcNAc(b1-3)[Neu5Ac(a2-3)Gal(b1-4)GlcNAc(b1-3)Gal(b1-4)GlcNAc(b1-6)]GalNAc
# Outline: as §1
# [27] = target: Neu5Ac(a2-3)Gal(b1-4)GlcNAc(b1-3)Gal(b1-4)GlcNAc(b1-6)[Gal(b1-3)]GalNAc
# Outline: as §1
# [28] = target: Neu5Ac(a2-3)Gal(b1-4)GlcNAc(b1-3)Gal(b1-4)[Fuc(a1-3)]GlcNAc
# Outline: as §1
# [29] = target: Neu5Ac(a2-3)Gal(b1-4)GlcNAc(b1-3)GalNAc
# Outline: as §1
# [30] = target: Neu5Ac(a2-3)Gal(b1-4)GlcNAc(b1-3)[Neu5Ac(a2-3)Gal(b1-4)GlcNAc(b1-6)]GalNAc
# Outline: as §1
binder,measurement,setting,value
Pwp6 (Candida glabrata) (protein) MGSSHHHHHHSSGLVPRGSHMASANLPKLTNICQIPDNVKKTSGFKGEIRRIGLFPPGGDYTYLLKFPSTGSTASDTISLTTKPQLSTSGWFPSLFGHTYFIKADLLVYMVAYFVPTETGEYTFKLVNSDDAAVMYVGNPSAFPCGSIDTWPEPRKEDINVCDKISASTKLYMEKGLAYPVRLVWYNGGGDGQFNAQFIDPSGTTHTDWNGYVWQYDACTDCDYK,glycan array binding signal (z-score),[1],0.136
same,glycan array binding signal (z-score),[2],-0.364
same,glycan array binding signal (z-score),[3],0.185
same,glycan array binding signal (z-score),[4],-0.125
same,glycan array binding signal (z-score),[5],0.907
same,glycan array binding signal (z-score),[6],-0.281
same,glycan array binding signal (z-score),[7],0.386
same,glycan array binding signal (z-score),[8],1.28
same,glycan array binding signal (z-score),[9],-0.477
same,glycan array binding signal (z-score),[10],-0.63
same,glycan array binding signal (z-score),[11],0.737
same,glycan array binding signal (z-score),[12],-0.385
same,glycan array binding signal (z-score),[13],4.2
same,glycan array binding signal (z-score),[14],-0.488
same,glycan array binding signal (z-score),[15],0.345
same,glycan array binding signal (z-score),[16],0.477
same,glycan array binding signal (z-score),[17],0.259
same,glycan array binding signal (z-score),[18],1.89
same,glycan array binding signal (z-score),[19],-0.537
same,glycan array binding signal (z-score),[20],-0.451
same,glycan array binding signal (z-score),[21],-0.592
same,glycan array binding signal (z-score),[22],0.992
same,glycan array binding signal (z-score),[23],0.324
same,glycan array binding signal (z-score),[24],1.69
same,glycan array binding signal (z-score),[25],0.749
same,glycan array binding signal (z-score),[26],0.745
same,glycan array binding signal (z-score),[27],0.556
same,glycan array binding signal (z-score),[28],0.372
same,glycan array binding signal (z-score),[29],-0.205
same,glycan array binding signal (z-score),[30],0.666

# Given tab-delimited: part of the list above
binder	measurement	setting	value
Pwp6 (Candida glabrata) (protein) MGSSHHHHHHSSGLVPRGSHMASANLPKLTNICQIPDNVKKTSGFKGEIRRIGLFPPGGDYTYLLKFPSTGSTASDTISLTTKPQLSTSGWFPSLFGHTYFIKADLLVYMVAYFVPTETGEYTFKLVNSDDAAVMYVGNPSAFPCGSIDTWPEPRKEDINVCDKISASTKLYMEKGLAYPVRLVWYNGGGDGQFNAQFIDPSGTTHTDWNGYVWQYDACTDCDYK	glycan array binding signal (z-score)	[12]	-0.385
same	glycan array binding signal (z-score)	[13]	4.2
